Taken from: PubChem BioAssay AID1671195 (Yale University, 2021)
Purpose: 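Regulators of LDL receptor activity judged by labelled LDL uptake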 (primary screen). Cell system: human Huh7 hepatoma cells. Reagents: siRNA pool against human genes, 18 nM. Duration: about 2 to 2.5 days of knockdown, then 8 h LDL uptake. Treatment: DiI-labelled LDL at 30 µg/ml for 8 h, in lipoprotein-deficient serum medium. Detection: 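Fluorescent LDL signal imaged in cells, scaled to the plate median, robust z-score for each replicate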. Scale: robust z-score: higher = more LDL uptake after knockdown. Rule for the call: 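a gene counts as active if at least two replicate z-scores exceed ±2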.
Here is one part, drawn at random, of about 22,000 reagents tested. About 1,510 of all reagents (6.9%) were called active. 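Active includes knockdowns raising or lowering LDL uptake; positive z-scores mean more uptake, negative mean less.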 Entries without a mark were called inactive. The numbers tell different reagents against one gene apart.

no.	gene knocked down	reagent	robust z-score, replicate 1	robust z-score, replicate 2	robust z-score, replicate 3
1	YPEL1 (yippee like 1)	1	0.154	-0.107	-1.79
2	MEAF6 (MYST/Esa1 associated factor 6)	1	-1.47	-1.25	-1.51
3	ARMC7 (armadillo repeat containing 7)	1	-1.33	-1.39	-1.38
4	RUMY4 (RUMY family member 4)	1	1.27	1.77	1.65
5	LCN10 (lipocalin 10)	1	-1.28	-1.07	-0.749
6	EEF1B2P5	1	1.18	1.44	1.32
7	OR1A1 (olfactory receptor family 1 subfamily A member 1)	1	-1.06	-0.4	-1.57
8	SPR (sepiapterin reductase)	1	0.3	-0.463	0.013
9	HHLA2 (HHLA2 member of B7 family)	1	0.0859	-0.714	-0.871
10	NIBAN2 (niban apoptosis regulator 2)	1	0.312	0.00837	0.204
11	NDUFA5 (NADH:ubiquinone oxidoreductase subunit A5)	1	0.863	-0.274	-0.981
12	LY6E (lymphocyte antigen 6 family member E)	1	-0.455	-1.4	-0.147
13	CHRNA3 (cholinergic receptor nicotinic alpha 3 subunit)	1	-0.977	-0.879	-0.662
14	CA15P2 (CA15 pseudogene 2)	1	-0.32	-0.638	-0.334
15	SNAP91 (synaptosome associated protein 91)	1	-0.869	-1.43	-2.2
16	SEMA6C (semaphorin 6C)	1	-1.15	0.355	-1.69
17	PRPF31 (pre-mRNA processing factor 31)	1	0.125	1.02	0.0026
18	MTDH (metadherin)	1	2.1	0.596	0.544
19	MRPS35 (mitochondrial ribosomal protein S35)	1	-0.68	-0.878	-0.975
20	COG2 (component of oligomeric golgi complex 2)	1	-0.86	-0.599	-0.812
21	SLC35A1	1	0.786	0.934	0.936
22	INPP4B (inositol polyphosphate-4-phosphatase type II B)	1	-0.314	0.765	0.0989
23	ATF3 (activating transcription factor 3)	1	-0.236	0.152	-0.0483
24	FBXO48 (F-box protein 48)	1	-0.869	-1.14	-0.867
25	MTO1 (mitochondrial tRNA translation optimization 1)	1	2.35 (active)	1.24	2.64
26	LOC441840 (retired record)	1	-1.27	-1.37	-1.2
27	TMEM242 (transmembrane protein 242)	1	-1.12	-2.08	-1.6
28	LOC339274 (retired record)	1	3.09 (active)	3.11	3.67
29	DNAJA2 (DnaJ heat shock protein family (Hsp40) member A2)	1	0.371	0.725	0.241
30	LOC390349 (retired record)	1	-1.36	-1.35	-1.29
31	MTA2 (metastasis associated 1 family member 2)	1	-1.54	-0.861	-0.87
32	ETV7 (ETS variant transcription factor 7)	1	0.065	0.275	1.05
33	GABRR3 (gamma-aminobutyric acid type A receptor subunit rho3)	1	0.00957	0.287	-0.0471
34	ARHGAP17 (Rho GTPase activating protein 17)	1	2.73 (active)	3.55	3.11
35	KCNG3	1	0.311	1.03	0.705
36	IRX2-DT (IRX2 divergent transcript)	1	1.46	-0.121	2.04
37	RALGDS (ral guanine nucleotide dissociation stimulator)	1	-0.00817	0.446	0.589
38	FXR1 (FMR1 autosomal homolog 1)	1	1.96	-0.183	-0.0943
39	PRKAR1B (protein kinase cAMP-dependent type I regulatory subunit beta)	1	-0.255	-0.629	-0.784
40	EDNRA (endothelin receptor type A)	1	0.821 (active)	2.18	2.45
41	MSRB2 (methionine sulfoxide reductase B2)	1	-1.71	-1.65	-1.54
42	MDFI (MyoD family inhibitor)	1	0.359	0.577	0.623
43	VTI1A (vesicle transport through interaction with t-SNAREs 1A)	1	0.0419	0.794	-0.0264
44	VTI1A (vesicle transport through interaction with t-SNAREs 1A)	2	-0.101	-1.29	0.0708
45	NTM (neurotrimin)	1	0.82	0.149	-0.674
46	OR4B1 (olfactory receptor family 4 subfamily B member 1)	1	-1.69	-1.86	-1.17
47	TM6SF2 (transmembrane 6 superfamily member 2)	1	1.09	0.287	1.08
48	GORASP1 (golgi reassembly stacking protein 1)	1	0.217	0.152	0.958
49	CYP4Z1 (cytochrome P450 family 4 subfamily Z member 1)	1	-0.371	0.18	-0.434
50	NAV1 (neuron navigator 1)	1	1.89	1.81	2.16
51	IRAK3 (interleukin 1 receptor associated kinase 3)	1	-1.04	-0.792	-0.416
52	OTUD4 (OTU deubiquitinase 4)	1	0.162	2.18	0.291
53	LOC442119 (retired record)	1	0.11	0.369	0.537
54	LOC441821 (retired record)	1	-0.681	-0.0892	-0.439
55	TRIM46 (tripartite motif containing 46)	1	-0.694	-1.07	-0.0475
56	ZC3HAV1 (zinc finger CCCH-type containing, antiviral 1)	1	-0.69	0.527	0.0578
57	PHLDA2 (pleckstrin homology like domain family A member 2)	1	0.487	-1.22	-0.422
58	AZIN1 (antizyme inhibitor 1)	1	-0.627	0.229	-0.755
59	LOC392550 (retired record)	1	-1.3	-0.856	-1.06
60	LOC388123 (retired record)	1	1.77 (active)	2.52	2.07
61	LONRF1 (LON peptidase N-terminal domain and ring finger 1)	1	-0.712	-1.38	3.33
62	IP6K1 (inositol hexakisphosphate kinase 1)	1	-0.955	-1.08	-0.385
63	CLDN17 (claudin 17)	1	0.266	0.157	0.551
64	DNAH1 (dynein axonemal heavy chain 1)	1	0.231	-0.757	-0.867
65	SLC35E4	1	-0.92	-0.99	-1.25
66	EME1 (essential meiotic structure-specific endonuclease 1)	1	-2.25	-1.65	-1.38
67	GAS8-AS1 (GAS8 antisense RNA 1)	1	-2 (active)	-1.22	-2.18
68	TVP23C (trans-golgi network vesicle protein 23 homolog C)	1	2.77 (active)	3.1	2.04
69	PON2 (paraoxonase 2)	1	-0.665	-0.441	-0.549
70	PCGF3 (polycomb group ring finger 3)	1	0.394	0.82	0.901
71	SDCBP (syndecan binding protein)	1	0.0363	0.176	0.235
72	LGALSL (galectin like)	1	-0.0664	0.588	0.332
73	TMEM114 (transmembrane protein 114)	1	0.405	0.534	0.624
74	TPP2 (tripeptidyl peptidase 2)	1	1.83	3.2	1.54
75	RASSF4 (Ras association domain family member 4)	1	0.297	0.196	0.357
76	LOC441245 (retired record)	1	2.24 (active)	1.91	2.14
77	TPX2 (TPX2 microtubule nucleation factor)	1	-0.128	-0.627	-0.299
78	REEP3 (receptor accessory protein 3)	1	2.41	1.77	1.9
79	CYP2E1 (cytochrome P450 family 2 subfamily E member 1)	1	-0.584	-0.637	-0.282
80	FRS3 (fibroblast growth factor receptor substrate 3)	1	0.87	0.584	0.836
81	NAT8 (N-acetyltransferase 8 (putative))	1	-1.17	-1.52	-1.64
82	LOC400004 (retired record)	1	1.43	0.898	0.545
83	ENTREP3 (endosomal transmembrane epsin interactor 3)	1	0.285	-1.3	-0.222
84	LOC442148 (retired record)	1	2.28	1.75	1.46
85	CRIP1 (cysteine rich protein 1)	1	-0.634	-0.727	-0.163
86	LINC00596 (long independently transcribed non-coding RNA 596)	1	-0.938	0.00952	-0.125
87	EPCIP (exosomal polycystin 1 interacting protein)	1	-0.94	-1.95	-0.776

Entries above whose target name begins with O or o (3):
gene knocked down	reagent	robust z-score, replicate 1	robust z-score, replicate 2	robust z-score, replicate 3
OR1A1 (olfactory receptor family 1 subfamily A member 1)	1	-1.06	-0.4	-1.57
OR4B1 (olfactory receptor family 4 subfamily B member 1)	1	-1.69	-1.86	-1.17
OTUD4 (OTU deubiquitinase 4)	1	0.162	2.18	0.291
